Source: PMC12049415

By UniProt entry, the sequences of proteins in these tests, tags left out.
UniProt Q13283: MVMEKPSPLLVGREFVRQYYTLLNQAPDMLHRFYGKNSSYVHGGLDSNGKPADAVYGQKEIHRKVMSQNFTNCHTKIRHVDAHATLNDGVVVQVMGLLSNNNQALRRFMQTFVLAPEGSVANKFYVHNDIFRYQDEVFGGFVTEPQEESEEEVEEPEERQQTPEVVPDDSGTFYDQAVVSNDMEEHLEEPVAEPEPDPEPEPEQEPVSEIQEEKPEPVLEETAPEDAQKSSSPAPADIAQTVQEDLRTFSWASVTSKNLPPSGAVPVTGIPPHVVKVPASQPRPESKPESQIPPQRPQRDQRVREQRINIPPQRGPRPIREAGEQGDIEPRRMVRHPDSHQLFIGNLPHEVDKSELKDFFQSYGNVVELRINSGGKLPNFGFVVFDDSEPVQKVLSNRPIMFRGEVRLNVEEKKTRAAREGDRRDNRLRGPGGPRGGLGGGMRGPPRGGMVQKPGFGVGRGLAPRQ
UniProt P49792: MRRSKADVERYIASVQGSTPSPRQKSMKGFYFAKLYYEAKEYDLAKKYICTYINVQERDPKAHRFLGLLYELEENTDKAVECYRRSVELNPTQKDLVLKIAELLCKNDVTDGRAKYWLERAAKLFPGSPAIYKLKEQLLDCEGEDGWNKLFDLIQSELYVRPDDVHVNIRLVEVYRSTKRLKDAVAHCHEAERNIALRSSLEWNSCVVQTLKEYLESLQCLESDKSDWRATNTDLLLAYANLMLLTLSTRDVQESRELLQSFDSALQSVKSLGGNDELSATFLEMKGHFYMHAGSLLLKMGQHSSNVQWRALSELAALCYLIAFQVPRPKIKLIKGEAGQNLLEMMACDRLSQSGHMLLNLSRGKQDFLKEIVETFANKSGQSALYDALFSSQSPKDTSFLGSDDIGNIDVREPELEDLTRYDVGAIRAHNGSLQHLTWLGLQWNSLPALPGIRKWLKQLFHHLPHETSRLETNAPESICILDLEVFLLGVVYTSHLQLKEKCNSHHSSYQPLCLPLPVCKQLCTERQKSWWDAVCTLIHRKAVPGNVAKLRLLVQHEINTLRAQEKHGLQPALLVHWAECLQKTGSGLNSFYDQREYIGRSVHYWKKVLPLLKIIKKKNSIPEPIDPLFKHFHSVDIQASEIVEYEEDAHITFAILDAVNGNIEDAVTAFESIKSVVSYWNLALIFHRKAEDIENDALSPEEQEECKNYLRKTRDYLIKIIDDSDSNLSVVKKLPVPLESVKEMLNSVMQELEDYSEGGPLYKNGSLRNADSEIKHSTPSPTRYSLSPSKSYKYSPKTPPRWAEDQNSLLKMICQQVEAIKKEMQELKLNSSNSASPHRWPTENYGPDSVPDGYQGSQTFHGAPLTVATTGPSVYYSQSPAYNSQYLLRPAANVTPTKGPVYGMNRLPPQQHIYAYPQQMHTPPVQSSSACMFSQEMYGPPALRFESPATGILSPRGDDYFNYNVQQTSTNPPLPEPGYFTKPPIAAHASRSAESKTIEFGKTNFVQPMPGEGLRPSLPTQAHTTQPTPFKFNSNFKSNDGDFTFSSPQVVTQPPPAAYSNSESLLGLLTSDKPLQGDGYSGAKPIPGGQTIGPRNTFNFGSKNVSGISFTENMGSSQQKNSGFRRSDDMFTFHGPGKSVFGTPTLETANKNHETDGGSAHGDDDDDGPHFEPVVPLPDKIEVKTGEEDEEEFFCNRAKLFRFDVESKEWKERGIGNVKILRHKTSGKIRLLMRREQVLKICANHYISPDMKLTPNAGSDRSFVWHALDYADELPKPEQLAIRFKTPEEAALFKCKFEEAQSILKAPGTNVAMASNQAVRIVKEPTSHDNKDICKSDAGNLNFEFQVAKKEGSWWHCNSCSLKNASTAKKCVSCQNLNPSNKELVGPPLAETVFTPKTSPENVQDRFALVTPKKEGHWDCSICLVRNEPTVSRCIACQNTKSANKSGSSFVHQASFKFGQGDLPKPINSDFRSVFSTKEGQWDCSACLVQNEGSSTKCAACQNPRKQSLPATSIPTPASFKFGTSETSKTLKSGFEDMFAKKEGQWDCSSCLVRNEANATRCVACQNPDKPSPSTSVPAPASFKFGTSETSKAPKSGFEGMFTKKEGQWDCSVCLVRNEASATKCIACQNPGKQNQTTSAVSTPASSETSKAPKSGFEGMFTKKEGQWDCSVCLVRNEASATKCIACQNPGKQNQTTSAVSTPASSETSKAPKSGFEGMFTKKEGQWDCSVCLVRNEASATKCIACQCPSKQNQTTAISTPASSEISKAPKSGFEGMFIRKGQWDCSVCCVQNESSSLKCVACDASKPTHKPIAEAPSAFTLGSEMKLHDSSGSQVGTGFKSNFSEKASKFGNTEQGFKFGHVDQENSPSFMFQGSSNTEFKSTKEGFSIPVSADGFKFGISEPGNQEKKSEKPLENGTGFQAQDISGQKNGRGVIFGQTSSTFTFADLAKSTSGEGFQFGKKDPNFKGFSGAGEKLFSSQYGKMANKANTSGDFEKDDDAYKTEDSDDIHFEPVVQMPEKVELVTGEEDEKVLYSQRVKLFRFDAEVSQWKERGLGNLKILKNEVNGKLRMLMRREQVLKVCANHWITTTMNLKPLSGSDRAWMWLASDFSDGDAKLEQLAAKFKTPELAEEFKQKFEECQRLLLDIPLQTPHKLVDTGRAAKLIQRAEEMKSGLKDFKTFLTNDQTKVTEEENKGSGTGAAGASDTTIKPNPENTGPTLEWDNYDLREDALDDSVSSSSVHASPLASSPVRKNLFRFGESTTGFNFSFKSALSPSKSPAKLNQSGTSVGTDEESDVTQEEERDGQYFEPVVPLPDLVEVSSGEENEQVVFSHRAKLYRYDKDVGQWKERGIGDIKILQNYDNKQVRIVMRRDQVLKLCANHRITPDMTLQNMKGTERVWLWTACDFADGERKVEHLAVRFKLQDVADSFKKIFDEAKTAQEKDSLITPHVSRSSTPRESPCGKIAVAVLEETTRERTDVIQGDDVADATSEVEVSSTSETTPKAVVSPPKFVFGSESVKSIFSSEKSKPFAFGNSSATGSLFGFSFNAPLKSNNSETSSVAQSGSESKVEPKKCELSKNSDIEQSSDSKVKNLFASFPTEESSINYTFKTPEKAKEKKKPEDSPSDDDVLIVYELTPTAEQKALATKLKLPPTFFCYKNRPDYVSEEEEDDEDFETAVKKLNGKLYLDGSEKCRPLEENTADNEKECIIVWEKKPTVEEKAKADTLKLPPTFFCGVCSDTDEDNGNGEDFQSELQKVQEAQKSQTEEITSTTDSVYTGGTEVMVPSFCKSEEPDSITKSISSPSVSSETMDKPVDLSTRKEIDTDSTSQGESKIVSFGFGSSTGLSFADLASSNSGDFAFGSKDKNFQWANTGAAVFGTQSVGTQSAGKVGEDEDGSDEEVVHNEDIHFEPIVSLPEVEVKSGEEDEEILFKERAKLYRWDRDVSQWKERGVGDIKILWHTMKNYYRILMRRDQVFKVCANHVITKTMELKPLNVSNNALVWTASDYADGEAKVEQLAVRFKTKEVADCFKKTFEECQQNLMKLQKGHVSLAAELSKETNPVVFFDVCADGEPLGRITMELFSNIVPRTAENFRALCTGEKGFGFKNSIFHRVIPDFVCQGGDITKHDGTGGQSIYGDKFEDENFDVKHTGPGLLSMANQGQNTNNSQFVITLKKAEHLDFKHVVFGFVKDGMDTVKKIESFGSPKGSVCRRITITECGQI

Target: G3BP stress granule assembly factor 1 (G3BP1), endogenous (human (endogenous in SK-N-SH and SH-SY5Y)) (UniProt Q13283)
Experiment: affinity purification with mass spectrometry; Co-IP from NB cells (bait TSPYL5, or bait G3BP1), SDS-PAGE bands digested with trypsin, LC-MS/MS (Orbitrap-Fusion)

- binding: binds
Substance: RAN binding protein 2 (RanBP2), endogenous (from UniProt P49792 1-3224)

Results are given in words; binding and its absence hold for the method and conditions named. In cells and extracts the contact can be indirect. Here binding means that the protein was enriched with, or labelled near, the bait; the list need not be complete.
